# According to PubChem BioAssay AID2685 (National Center for Advancing Translational Sciences (NCATS), 2010):
# Some of the results follow. Shown are side measurements of this screen, not its main read-out; they come without a call. The list favours compounds with an active or inconclusive main result. Potencies come from curve fits of mixed quality, noted in brackets.
# Experiment: qHTS Assay for Lipid Storage Modulators in Drosophila S3 Cells;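 on cell number change: cells counted by Cell Tracker Red CMTPX staining in the red channel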
# Details: BODIPY lipid droplet fluorescence, 18-24 h; for cell number change: measured here: cell count max response, cells fed with added oleic acid
# Summary of the method: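 Laser-scanning cytometry quantifies lipid droplet accumulation (500–530 nm total intensity; droplet/cell object ratio) in oleic acid-fed (400 uM added) Drosophila S3 cells treated with a concentration series. 20 uM Triacsin C defined 100% inhibition.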
# [1] = measured here: cell number channel AC50, cells fed with added oleic acid
# [2] = measured here: lipid fluorescence (Fed channel) AC50, cells fed with added oleic acid
SMILES,cell number change,AC50 [1],AC50 [2]
CC(C)=CCCC(C)CN1CCC(n2nccc2NC(=O)c2ccc3c(c2)OCO3)CC1 (centres undefined),68.6%,"29.1 µM [rising, single point]","0.00651 µM [rising, full curve, poor fit]"
CCC(=O)N1CCc2cc(S(=O)(=O)NCCC(=O)Nc3ccccc3C)ccc21,-9.4%,–,"6.51 µM [falling, single point]"
COc1ccc(NC(=O)NNS(=O)(=O)c2ccc(Br)cc2)cc1,53%,"16.4 µM [rising, single point]","0.58 µM [rising, full curve, poor fit]"
COc1cccc2c1C(=O)O/C2=C/c1ccc2c(c1)OCO2,29.2%,"1.3 µM [rising, full curve]","0.651 µM [rising, full curve]"
COc1cc(/C=N/OCC(=O)Nc2cc(C)on2)ccc1OCc1ccccc1,3.92%,–,"18.4 µM [rising, partial curve]"
Cc1ccc(NC(=S)N/N=C/c2ccc([N+](=O)[O-])s2)cc1,-10.3%,–,"23.1 µM [falling, partial curve, poor fit]"
CCOC(=O)c1cc(C)n(-n2cnnc2)c1C,–,–,"25.9 µM [falling, partial curve]"
O=C(CSc1nnc(Cc2ccccc2)o1)NCCc1ccccc1,113%,"29.1 µM [rising, single point]","0.517 µM [falling, full curve]"
CCn1cc(C(=O)NCCCOC)c(=O)c2cc(S(=O)(=O)N(C)C3CCCCC3)ccc21,-18.3%,–,"32.6 µM [falling, single point]"
COc1ccccc1NC(=O)COC(=O)[C@@H]1CCCN1C(=O)c1cccs1,21.7%,–,–
COc1cccc(NC(=O)CCNS(=O)(=O)c2cccc3nsnc23)c1,-48.3%,–,"20.6 µM [falling, partial curve, poor fit]"
Cc1nc(C)c(-c2ccc(SCC(=O)Nc3ccc(C)c(Cl)c3)nn2)s1,79.8%,"16.4 µM [rising, partial curve]","16.4 µM [rising, single point]"
COc1ccc(S(=O)(=O)N2CCCC(C(=O)Nc3cccnc3)C2)cc1Cl (centres undefined),-37.1%,"9.2 µM [falling, partial curve, poor fit]","14.6 µM [falling, partial curve]"
COC(=O)c1c(NC(=O)c2cnccn2)sc2c1CCC2,3.76%,"0.411 µM [rising, full curve]","0.291 µM [rising, partial curve, poor fit]"
Cc1ccc(S(=O)(=O)NC(C)(C)CSc2nnc(Nc3ccccc3)s2)cc1,-38.7%,"1.84 µM [falling, partial curve]","6.51 µM [rising, single point]"
CC1CCC(NC(=O)c2cc3c(s2)CS(=O)(=O)C3)CC1 (centres undefined),11%,–,"1.64 µM [falling, partial curve, poor fit]"
CC1=Nn2c(nnc2-c2ccccc2Cl)SC1,4.39%,–,–
O=C(NC12CC3CC(CC(C3)C1)C2)C1CC(=O)N(c2ccc(Br)cc2)C1 (centres undefined),3.58%,–,"0.0651 µM [falling, full curve, poor fit]"
O=C(c1ccc(F)cc1)N1CCCC(C(=O)N2CCc3ccccc3C2)C1 (centres undefined),-4.44%,–,"29.1 µM [falling, single point]"
CC(C(=O)NCCc1nc2ccccc2[nH]1)n1cc([N+](=O)[O-])cn1 (centres undefined),-31.4%,–,"0.116 µM [falling, full curve, poor fit]"

SMILES,cell number change,AC50 [1],AC50 [2]
CCn1ncc(/C=N/N=C2\CCC3C4CCc5cc(O)ccc5C4CCC23C)c1C (centres undefined),–,"1.84 µM [rising, partial curve]","0.58 µM [rising, single point]"
c1cc2c(cc1C1CCCCC1)c1c3n2CCN=C3CCC1,-37.2%,"29.1 µM [falling, single point]","16.4 µM [falling, single point]"
O=C(CSc1nnc(NC(=O)C2CC2)s1)Nc1ccc(F)cc1,3.96%,"6.51 µM [falling, single point]",–
O=C(O)CCCC(=O)N1CCN(c2cccc(Cl)c2)CC1,-8.13%,–,–
O=C1CCC(=O)N1CCOP1(=O)COc2ccccc2OC1,-0.164%,–,"0.731 µM [falling, full curve]"
CC(C)Cc1nnc(NC(=O)CN2C(=O)NC3(CC(C)CC(C)(C)C3)C2=O)s1 (centres undefined),40.5%,"32.6 µM [rising, single point]",–
CC(C)NCC(=O)Nc1c2c(nc3ccccc13)CCC2,-7.16%,–,"0.82 µM [falling, full curve, poor fit]"
Cc1cc(C)n(CC(=O)N/N=C/c2cccc([N+](=O)[O-])c2)n1,-4.1%,–,–
C/C(N)=C(/C#N)C(=O)COC(=O)c1ccncc1,0.359%,–,–
Cc1cccc(Cc2nnc(NC(=O)c3cccc(S(=O)(=O)N4CCOCC4)c3)s2)c1,–,–,"0.58 µM [rising, single point]"
Cc1nc2cc(S(=O)(=O)N3CCC(C(=O)O)CC3)ccc2n1C1CCCC1,0.719%,–,–
Cc1ccc(C(C)NC(=O)Cc2cccs2)c(C)c1 (centres undefined),4.67%,–,"0.58 µM [rising, single point]"
CCOC(=O)c1c(NC(=O)Cc2cccs2)sc(C(=O)NC2CCCC2)c1C,23.4%,–,"0.366 µM [rising, full curve]"
NC(=O)c1ccc[n+](CC(=O)c2ccc(Br)cc2)c1,-24.5%,–,"6.51 µM [falling, full curve]"
O=C(N/N=C\c1cc(Cl)ccc1O)c1ccc(S(=O)(=O)N2CCCCC2)cc1,-40.3%,"18.4 µM [falling, single point]","18.4 µM [falling, single point]"
CCOC(=O)CC(=O)CSc1ncnc2c1nnn2-c1ccccc1,8.55%,–,"29.1 µM [rising, single point]"
COc1ccc(O)c(/C=N/NC(=O)CCC(=O)Nc2cccc(C)c2)c1,-10.6%,–,"11.6 µM [falling, partial curve]"
COc1ccccc1-c1c(C)nn2c(N3CCN(c4ccccc4OC)CC3)cc(C)nc12,12.2%,–,–
Cc1ccc(C)c(NC(=O)COC(=O)c2ccc3c(c2)OCCO3)c1,-25.2%,–,"0.082 µM [falling, full curve]"
COc1ccc(C(=O)Nc2cc(C)on2)cc1,7.15%,–,"1.03 µM [rising, full curve, poor fit]"

SMILES,cell number change,AC50 [1],AC50 [2]
CCOC(=O)COc1cccc2c(=O)n(CC(=O)N3CCCCC3)ccc12,13.4%,–,–
Cc1c(NS(=O)(=O)c2ccc(C(=O)NCc3ccc(F)cc3)cc2)c(=O)n(-c2ccccc2)n1C,-4.33%,–,"0.291 µM [falling, full curve, poor fit]"
CCOc1cc(NC(=O)c2ccco2)c(OCC)cc1NC(=O)COc1ccccc1,-29.6%,–,"0.82 µM [rising, full curve, poor fit]"
COCCCNS(=O)(=O)c1cc2c3c(c1)C(C)C(=O)N3CCC2 (centres undefined),34.4%,–,"29.1 µM [rising, single point]"
CCC(=O)N1CCN(c2ccc(Cl)cc2NC(=O)Cc2ccc(Cl)cc2)CC1,0.594%,–,–
CC(C)(C)c1cc(NC(=O)c2cccnc2)no1,-48.6%,"25.9 µM [falling, single point]","29.1 µM [falling, single point]"
O=C(O)c1ccc(NS(=O)(=O)c2ccc(Cl)c(C(=O)Nc3ccccc3[N+](=O)[O-])c2)cc1,3.67%,–,–
COc1ccc(-c2cc(C(F)(F)F)n3ncc(C(=O)O)c3n2)cc1OC,14.8%,–,–
CCN(CC)c1ccc(-c2n[nH]c(=S)n2-c2ccccc2)cc1,-23.3%,–,"7.31 µM [falling, single point]"
Cc1ccc(C(=O)NCC(=O)O)s1,-23.3%,–,"1.46 µM [falling, partial curve, poor fit]"
O=C(NCc1cccnc1)NC1(C(F)(F)F)Oc2ccc(Cl)cc2O1 (centres undefined),-92%,"8.2 µM [falling, partial curve]","11.6 µM [falling, partial curve]"
O=C(N/N=C/c1ccccn1)c1cccc(NC(=O)c2ccc(Cl)cc2)c1,-33.5%,"4.61 µM [falling, full curve]","6.51 µM [falling, full curve, poor fit]"
CC(=O)Nc1cc(C(=O)N2CCCC2)ccc1Sc1ccc(Cl)cc1,-11%,–,"0.82 µM [rising, full curve]"
Oc1ccccc1C1N=C(c2ccccc2)NC(c2ccccc2)=N1,-68.5%,–,–
COc1ccc(-n2c(C)cc(C(=O)COc3ccc(-n4cnnn4)cc3)c2C)cc1,-32.9%,"10.3 µM [falling, partial curve]",–
CC(C)CC(=O)NC(=S)Nc1ccccn1,33.4%,"0.0103 µM [rising, full curve, poor fit]",–
c1cncc(-c2nc3c(ccc4ccccc43)[nH]2)c1,-17.5%,–,–
O=C(Nc1ccc(Cl)c(Cl)c1)Nc1nnc(CSc2ccccc2)s1,96.6%,"9.2 µM [rising, partial curve]","3.66 µM [falling, full curve]"
Cc1ccc(N(CC(=O)NC(C)(C)C)C(=O)CCC(=O)Nc2nccs2)cc1C,-6.2%,–,"16.4 µM [falling, single point]"
O=C(CSCc1nc2ccccc2[nH]1)Nc1ccc2ccccc2c1,-22.9%,–,"0.58 µM [falling, full curve, poor fit]"

# Exported tab-delimited: part of the list above.
SMILES	cell number change	AC50 [1]	AC50 [2]
CC(C)(C)c1cc(NC(=O)c2cccnc2)no1	-48.6%	25.9 µM [falling, single point]	29.1 µM [falling, single point]
O=C(O)c1ccc(NS(=O)(=O)c2ccc(Cl)c(C(=O)Nc3ccccc3[N+](=O)[O-])c2)cc1	3.67%	–	–
